# Experimental data: the supplement of paper PMC7411640
# Structures can show the parent of a compound that is named as a salt. This is one part of the list. This data set is noisy: repeats of one test often differ as much as different tests do.
# System: MDA-MB-468
# Experiment: phospho-S6 immunofluorescence (DAPI-normalised), per-plate z-score; higher = higher phospho-S6 signal (less pathway suppression)
# Conditions: 24 h
# Protocol: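 GPCR-targeted compound library (MedChemExpress HY-L006) tested on MDA-MB-468 PTEN-null TNBC cells in 384-well plates at 0.1, 1 or 10 uM, combined with vehicle, GDC0941 450 nM or lapatinib 1 uM, for 24 h. Phospho-S6 (S240/244) immunofluorescence normalised to DAPI and expressed as a per-plate z-score; values are the mean of biological triplicates.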
# [1] = compound 0.1 µM, co-treatment: GDC0941 450 nM
# [2] = compound 0.1 µM, co-treatment: lapatinib 1 uM
# [3] = compound 0.1 µM, co-treatment: vehicle
# [4] = compound 1 µM, co-treatment: GDC0941 450 nM
# [5] = compound 1 µM, co-treatment: lapatinib 1 uM
# [6] = compound 1 µM, co-treatment: vehicle
# [7] = compound 10 µM, co-treatment: GDC0941 450 nM
# [8] = compound 10 µM, co-treatment: lapatinib 1 uM
# [9] = compound 10 µM, co-treatment: vehicle
structure (smiles),measurement,setting,value
Clc1ccccc1CN1CCc2sccc2C1 [Ticlopidine (hydrochloride)],phospho-S6 immunofluorescence (z-score),[1],-0.03
same,phospho-S6 immunofluorescence (z-score),[2],-0.2
same,phospho-S6 immunofluorescence (z-score),[3],-0.67
same,phospho-S6 immunofluorescence (z-score),[4],-0.13
same,phospho-S6 immunofluorescence (z-score),[5],-0.61
same,phospho-S6 immunofluorescence (z-score),[6],-0.45
same,phospho-S6 immunofluorescence (z-score),[7],-1.14
same,phospho-S6 immunofluorescence (z-score),[8],-0.33
same,phospho-S6 immunofluorescence (z-score),[9],-0.63
Cc1cc(Cn2cnc3c2CC(C(=O)O)N(C(=O)C(c2ccccc2)c2ccccc2)C3)ccc1N(C)C (stereo not drawn),phospho-S6 immunofluorescence (z-score),[1],-0.16
same,phospho-S6 immunofluorescence (z-score),[2],1.07
same,phospho-S6 immunofluorescence (z-score),[3],0.29
same,phospho-S6 immunofluorescence (z-score),[4],-0.83
same,phospho-S6 immunofluorescence (z-score),[5],-0.31
same,phospho-S6 immunofluorescence (z-score),[6],0.37
same,phospho-S6 immunofluorescence (z-score),[7],-0.71
same,phospho-S6 immunofluorescence (z-score),[8],0.17
same,phospho-S6 immunofluorescence (z-score),[9],0.29
CCC(=O)NCC[C@@H]1CCc2ccc3c(c21)CCO3 [Ramelteon],phospho-S6 immunofluorescence (z-score),[1],0.1
same,phospho-S6 immunofluorescence (z-score),[2],-1.43
same,phospho-S6 immunofluorescence (z-score),[3],-0.49
same,phospho-S6 immunofluorescence (z-score),[4],0.02
same,phospho-S6 immunofluorescence (z-score),[5],-0.6
same,phospho-S6 immunofluorescence (z-score),[6],-0.79
same,phospho-S6 immunofluorescence (z-score),[7],-0.04
same,phospho-S6 immunofluorescence (z-score),[8],-0.4
same,phospho-S6 immunofluorescence (z-score),[9],0.21
CC(=O)N[C@H](Cc1ccc2ccccc2c1)C(=O)N[C@H](Cc1ccc(Cl)cc1)C(=O)N[C@H](Cc1cccnc1)C(=O)N[C@@H](CO)C(=O)N(C)[C@@H](Cc1ccc(O)cc1)C(=O)N[C@H](CC(N)=O)C(=O)N[C@@H](CC(C)C)C(=O)N[C@@H](CCCCNC(C)C)C(=O)N1CCC[C@H]1C(=O)N[C@H](C)C(N)=O [Abarelix],phospho-S6 immunofluorescence (z-score),[1],-1.23
same,phospho-S6 immunofluorescence (z-score),[2],-1.63
same,phospho-S6 immunofluorescence (z-score),[3],-2.18
same,phospho-S6 immunofluorescence (z-score),[4],-0.88
same,phospho-S6 immunofluorescence (z-score),[5],0.85
same,phospho-S6 immunofluorescence (z-score),[6],-1.04
same,phospho-S6 immunofluorescence (z-score),[7],0.77
same,phospho-S6 immunofluorescence (z-score),[8],0.65
same,phospho-S6 immunofluorescence (z-score),[9],-0.38
CNC(=O)c1cnn(-c2nc(N)c3ncn([C@@H]4O[C@H](CO)[C@@H](O)[C@H]4O)c3n2)c1 [Regadenoson],phospho-S6 immunofluorescence (z-score),[1],-0.8
same,phospho-S6 immunofluorescence (z-score),[2],1.03
same,phospho-S6 immunofluorescence (z-score),[3],-0.12
same,phospho-S6 immunofluorescence (z-score),[4],-0.88
same,phospho-S6 immunofluorescence (z-score),[5],0.42
same,phospho-S6 immunofluorescence (z-score),[6],-0.35
same,phospho-S6 immunofluorescence (z-score),[7],1.19
same,phospho-S6 immunofluorescence (z-score),[8],1.71
same,phospho-S6 immunofluorescence (z-score),[9],0.29
COC(=O)[C@H]1[C@H]2C[C@H]3c4[nH]c5ccccc5c4CCN3C[C@H]2CC[C@@H]1O [Rauwolscine (hydrochloride)],phospho-S6 immunofluorescence (z-score),[1],0.23
same,phospho-S6 immunofluorescence (z-score),[2],-1.38
same,phospho-S6 immunofluorescence (z-score),[3],0.12
same,phospho-S6 immunofluorescence (z-score),[4],0
same,phospho-S6 immunofluorescence (z-score),[5],-0.67
same,phospho-S6 immunofluorescence (z-score),[6],-0.67
same,phospho-S6 immunofluorescence (z-score),[7],0.42
same,phospho-S6 immunofluorescence (z-score),[8],0.38
same,phospho-S6 immunofluorescence (z-score),[9],-0.22
OC[C@H]1O[C@@H](n2cnc3c(N[C@H]4CCC[C@@H]4O)ncnc32)[C@H](O)[C@@H]1O,phospho-S6 immunofluorescence (z-score),[1],0.93
same,phospho-S6 immunofluorescence (z-score),[2],0.96
same,phospho-S6 immunofluorescence (z-score),[3],-0.28
same,phospho-S6 immunofluorescence (z-score),[4],1.29
same,phospho-S6 immunofluorescence (z-score),[5],0.69
same,phospho-S6 immunofluorescence (z-score),[6],0.15
same,phospho-S6 immunofluorescence (z-score),[7],0.54
same,phospho-S6 immunofluorescence (z-score),[8],0.82
same,phospho-S6 immunofluorescence (z-score),[9],0.2

# Some of the entries so far, bar-delimited:
structure (smiles) | measurement | setting | value
Cc1cc(Cn2cnc3c2CC(C(=O)O)N(C(=O)C(c2ccccc2)c2ccccc2)C3)ccc1N(C)C (stereo not drawn) | phospho-S6 immunofluorescence (z-score) | [2] | 1.07
same | phospho-S6 immunofluorescence (z-score) | [3] | 0.29
same | phospho-S6 immunofluorescence (z-score) | [4] | -0.83
same | phospho-S6 immunofluorescence (z-score) | [5] | -0.31
same | phospho-S6 immunofluorescence (z-score) | [6] | 0.37
same | phospho-S6 immunofluorescence (z-score) | [7] | -0.71
same | phospho-S6 immunofluorescence (z-score) | [8] | 0.17
same | phospho-S6 immunofluorescence (z-score) | [9] | 0.29
CCC(=O)NCC[C@@H]1CCc2ccc3c(c21)CCO3 [Ramelteon] | phospho-S6 immunofluorescence (z-score) | [1] | 0.1
same | phospho-S6 immunofluorescence (z-score) | [2] | -1.43
same | phospho-S6 immunofluorescence (z-score) | [3] | -0.49
same | phospho-S6 immunofluorescence (z-score) | [4] | 0.02
same | phospho-S6 immunofluorescence (z-score) | [5] | -0.6
same | phospho-S6 immunofluorescence (z-score) | [6] | -0.79
same | phospho-S6 immunofluorescence (z-score) | [7] | -0.04
same | phospho-S6 immunofluorescence (z-score) | [8] | -0.4
same | phospho-S6 immunofluorescence (z-score) | [9] | 0.21
CC(=O)N[C@H](Cc1ccc2ccccc2c1)C(=O)N[C@H](Cc1ccc(Cl)cc1)C(=O)N[C@H](Cc1cccnc1)C(=O)N[C@@H](CO)C(=O)N(C)[C@@H](Cc1ccc(O)cc1)C(=O)N[C@H](CC(N)=O)C(=O)N[C@@H](CC(C)C)C(=O)N[C@@H](CCCCNC(C)C)C(=O)N1CCC[C@H]1C(=O)N[C@H](C)C(N)=O [Abarelix] | phospho-S6 immunofluorescence (z-score) | [1] | -1.23
same | phospho-S6 immunofluorescence (z-score) | [2] | -1.63
